The text below walks through data of paper PMC5442318, “Hundreds of dual-stage antimalarial molecules discovered by a functional gametocyte screen” (Nature Communications, 2017).

Where only a bound is given, the exact number is not on record here.

For the first series, the system named is HepG2 cells. Put plainly: HepG2 cytotoxicity assay. The conditions noted are these: HepG2 TOX50 versus Pf FGAA IC50. The class given is cell-based. On the procedure:
After incubation, plates and CellTiter-Glo Reagent (G7571, Promega) were equilibrated at room temperature for 30 min before proceeding to develop the luminescent signal. Using a Multidrop combi dispenser, 25 μl per well of the signal developer were added to the plates and after 10 min at room temperature for stabilization, plates were read on the ViewLux system (Perkin Elmer).
As to `CC(C)(C)c1ccc(CN2CCC(CNC(=O)c3cc(-c4ccccc4F)cs3)C2)cc1.O=C(O)C(F)(F)F` (stereo not shown) [TCMDC-134443], the Selectivity ratio is 11.22.
On the same count and under the same terms, next, `CC(C)(C)c1ccc(CN2CCC(CNC(=O)c3cc(-c4cccc(F)c4)cs3)C2)cc1.O=C(O)C(F)(F)F` (stereo not shown) [TCMDC-134444]: 5.01.
With `CC(C)(C)c1ccc(CN2CCC(CNC(=O)c3cc(-c4ccccc4Cl)cs3)C2)cc1.O=C(O)C(F)(F)F` (stereo not shown) [TCMDC-134445], the Selectivity ratio was 6.08.
As to `CC(C)(C)c1ccc(CN2CCC(CNC(=O)c3cc(-c4cccc(Cl)c4)cs3)C2)cc1.O=C(O)C(F)(F)F` (stereo not shown) [TCMDC-134446], the Selectivity ratio worked out at 7.50.
Turning to `COc1cccc(-c2csc(C(=O)NCC3CCN(Cc4ccc(C(C)(C)C)cc4)C3)c2)c1.O=C(O)C(F)(F)F` (stereo not shown) [TCMDC-134447], the Selectivity ratio was determined as 8.84.
As for `CCc1ccccc1-c1csc(C(=O)NCC2CCN(Cc3ccc(C(C)(C)C)cc3)C2)c1.O=C(O)C(F)(F)F` (stereo not shown) [TCMDC-134448], the Selectivity ratio is reported as 6.39.
Take `CN(C)c1ccc(-c2csc(C(=O)NCC3CCN(Cc4ccc(C(C)(C)C)cc4)C3)c2)cc1.O=C(O)C(F)(F)F` (stereo not shown) [TCMDC-134449]: the Selectivity ratio amounted to 11.99.
Regarding `O=C(NCC1CCN(Cc2cccc(C(F)(F)F)c2)C1)c1cc(-c2cccc(C(F)(F)F)c2)cs1.O=C(O)C(F)(F)F` (stereo not shown) [TCMDC-134483], the Selectivity ratio stood at 9.83.
In the case of `O=C(NCC1CCN(Cc2cccc(C(F)(F)F)c2)C1)c1cc(-c2cccc(F)c2)cs1.O=C(O)C(F)(F)F` (stereo not shown) [TCMDC-134484], the Selectivity ratio was determined as 8.35.
For `O=C(NCC1CCN(Cc2cccc(C(F)(F)F)c2)C1)c1cc(-c2cccc(Cl)c2)cs1.O=C(O)C(F)(F)F` (stereo not shown) [TCMDC-134485], the Selectivity ratio was 18.01.
Still for that read-out and setting: next, `CN(C)c1ccc(-c2csc(C(=O)NCC3CCN(Cc4cccc(C(F)(F)F)c4)C3)c2)cc1.O=C(O)C(F)(F)F` (stereo not shown) [TCMDC-134486]: 5.26; `N#Cc1ccc(-c2ccc(C(=O)NCC3CCN(CCN4CCC(c5ccc6c(c5OCC(N)=O)CCCC6)CC4)CC3)cc2)cc1` [TCMDC-134563]: 4.88.
Regarding `NCCCCNc1cc(-c2ccnc(Nc3cccc(Cl)c3)n2)ccn1` [TCMDC-134683], the Selectivity ratio was 0.46.
Still for that read-out and setting: next, `COc1cccc(OC)c1CN1CCC(N(C)CCCCCCCCN2CCC(OC(=O)Nc3ccccc3-c3ccccc3)CC2)CC1` [TCMDC-134684]: 0.85.
Still for that read-out and setting: next, `COc1cccc(OC)c1CN1CCC(N(C)CCCCCCCCCN2CCC(OC(=O)Nc3ccccc3-c3ccccc3)CC2)CC1` [TCMDC-134690]: 1.46.
Regarding `Cc1cccc(Nc2nc(N[C@@H]3CCCNC3)nc3cc[nH]c(=O)c23)c1.O=C(O)C(F)(F)F` [TCMDC-134835], the Selectivity ratio turned out to be 1.76.
Same read-out and setting: next, `O=C(O)C(F)(F)F.O=c1[nH]ccc2nc(N[C@@H]3CCNC3)nc(Nc3cc(Cl)cc(Cl)c3)c12` [TCMDC-135052]: 6.49; `NCCCNc1nc(Nc2ccc(C(F)(F)F)cc2F)c2c(=O)[nH]ccc2n1.O=C(O)C(F)(F)F` [TCMDC-135056]: 5.83.
`Fc1ccc(OC2CN(c3nccc(NCc4ccccc4Cl)n3)C2)cc1` [TCMDC-135110]: the Selectivity ratio worked out at 15.99.
Still for that read-out and setting: next, `COc1ccccc1CNc1ccnc(N2CC(Oc3ccc(F)cc3)C2)n1` [TCMDC-135118]: 18.10.
The same measure, in the same setting: next, `CC(C)(C)OC(=O)NCc1ccc(Nc2nnc(-c3cccc(C(=O)NCc4cc(C(F)(F)F)cc(C(F)(F)F)c4)c3)o2)cc1` [TCMDC-135229]: 6.82; `CCn1c(Sc2ccc([N+](=O)[O-])c(C#N)c2)nnc1-c1cccc(Cl)c1` [TCMDC-135234]: 13.98; `Cc1occc1C(=O)Nc1nc(-c2ccccn2)nc2ccsc12` [TCMDC-135244]: >1,666.67.
Regarding `CCn1c(-c2nonc2N)nc2c(-c3cc4ccccc4s3)ncc(C(=O)N3CCC(N)C3)c21.O=C(O)C(F)(F)F` (stereo not shown) [TCMDC-135281], the Selectivity ratio was determined as 2.23.
In the case of `CN1CCN(Cc2ccc(-c3cc4c(Nc5ccc(OCc6cccc(F)c6)c(Cl)c5)ncnc4s3)[nH]2)CC1` [TCMDC-135458], the Selectivity ratio was found to be 4.56.
Same read-out and setting: next, `Cc1[nH]c(C)c(-c2ccc(CCc3ccc(F)cc3F)cc2)c(=O)c1Cl` [TCMDC-135462]: above 7.52; `CNCCNc1nccc(N2CCc3ncnc(Nc4ccc(OCc5cccc(F)c5)c(Cl)c4)c3C2)n1` [TCMDC-135478]: 3.36; `CC(C)N1CCN(C(CN2CCN(CCCOc3ccc(-c4ccccc4)cc3)CC2)c2ccc(F)cc2)CC1.Cl` (stereo not shown) [TCMDC-135497]: 1.62.
Still for that read-out and setting: next, `CC(C)N1CCN(C(CN2CCN(CCCOc3ccccc3-c3ccccc3)CC2)c2ccc(F)cc2)CC1.Cl` (stereo not shown) [TCMDC-135499]: 3.06.
Take `COc1ccc(-c2cnc3[nH]cc(-c4ccncc4)c3c2)cc1OC` [TCMDC-135853]: the Selectivity ratio came to 5.22.

Still in this series, the particulars now being: HepG2 TOX50 vs Pf FGAA IC50.
Consider `COc1ccc2ccccc2c1CCCCN1CCN(CC(c2ccc(F)cc2)N2CCC2)CC1.O=C(O)C(F)(F)F` (stereo not shown) [TCMDC-135867], for which the Selectivity ratio is given as 0.74.
As for `COc1cc(/C=C(\C2=NC(=O)CS2)c2nc3cccnc3n2C)ccc1O` [TCMDC-135917], the Selectivity ratio stood at 29.44.
On the same count and under the same terms, next, `CCn1c(-c2nonc2N)nc2c(-c3cccc(NC(=O)Nc4ccc(Cl)cc4)c3)ncc(OCCCN)c21.O=C(O)C(F)(F)F` [TCMDC-136152]: 6.43.
The same measure, in the same setting: next, `CCn1c(-c2nonc2N)nc2c(-c3cccc(NC(=O)Nc4ccc(C(F)(F)F)cc4)c3)ncc(OCCCN)c21.O=C(O)C(F)(F)F` [TCMDC-136179]: 6.15; `CCn1c(-c2nonc2N)nc2c(-c3cccc(NC(=O)Nc4ccc5c(c4)CCC5)c3)ncc(OCCCN)c21.O=C(O)C(F)(F)F` [TCMDC-136191]: 7.20; `CCn1c(-c2nonc2N)nc2c(-c3cccc(NC(=O)Nc4cccc(Cl)c4)c3)ncc(OCCCN)c21.O=C(O)C(F)(F)F` [TCMDC-136193]: 68.35.
The same measure, in the same setting: next, `Cl.c1ccc2c(C3CCN(CCCCOc4ccc5c(c4)CCN(CC4CC4)CC5)CC3)c[nH]c2c1` [TCMDC-136244]: 4.48.
As for `CCn1c(-c2nonc2N)nc2c(-c3cccc(NC(=O)NC45CC6CC(CC(C6)C4)C5)c3)ncc(OCCCN)c21.O=C(O)C(F)(F)F` [TCMDC-136246], the Selectivity ratio is listed as 4.47.
The same measure, in the same setting: next, `Cc1noc(C)c1-c1ccc2c(Nc3nccc4ccccc34)c(C(N)=O)cnc2c1` [TCMDC-136456]: 2.50.
With `COc1ccc(Nc2nccc(-c3ccc4ccnc(NCCCCN)c4c3)n2)cc1` [TCMDC-136642], the Selectivity ratio is 9.46.
The same measure, in the same setting: next, `Cc1cc(C(F)(F)F)cc(-n2ncc(-c3ccc(C(=O)NCc4ccccc4N)cc3)c2N)n1.O=C(O)C(F)(F)F` [TCMDC-136658]: 18.37; `Cc1cc(OCCN2CCCCC2)ccc1NC(=O)c1cccc2c(=O)n(Cc3ccc(Cl)cc3)cnc12` [TCMDC-136727]: 2.97.
For the compound `CN1CCN(Cc2ccc(OCc3cccc(COc4ccc(CN5CCN(C)CC5)cc4I)c3)c(I)c2)CC1.Cl` [TCMDC-137239], the Selectivity ratio was 2.71.
On the same count and under the same terms, next, `CC(C)NCc1ccc(OCc2cccc(COc3ccc(CNC(C)C)cc3I)c2)c(I)c1.Cl` [TCMDC-137259]: 1.24; `CCCCOc1ccc(CNCCCCCCNCc2ccc(OCCCC)c3ccccc23)c2ccccc12.CS(=O)(=O)O` [TCMDC-137281]: 5.69.
With `CS(=O)(=O)O.FC(F)(F)COc1ccc(CCNCCCCNCCc2ccc(OCC(F)(F)F)c3ccccc23)c2ccccc12` [TCMDC-137282], the Selectivity ratio came to 8.19.
For `CS(=O)(=O)O.FC(F)(F)COc1ccc2ccccc2c1CCNCCCCNCCc1c(OCC(F)(F)F)ccc2ccccc12` [TCMDC-137317], the Selectivity ratio stood at 2.08.
The same measure, in the same setting: next, `COc1cc2c(cc1CCNCCCCNCCc1cc3c(cc1OC)CCCC3)CCCC2.CS(=O)(=O)O` [TCMDC-137319]: 2.10; `COc1ccc2c(c1CCNCCCCNCCc1c(OC)ccc3c1CCCC3)CCCC2.CS(=O)(=O)O` [TCMDC-137324]: 2.62.
On the same count and under the same terms, next, `C=CCOc1ccc2ccccc2c1CNCCCCCCNCc1c(OCC=C)ccc2ccccc12.CS(=O)(=O)O` [TCMDC-137340]: 2.75; `Cl.c1ccc2c(Nc3ccc(Cc4ccc(Nc5c6ccccc6nc6ccccc56)cc4)cc3)c3ccccc3nc2c1` [TCMDC-137354]: 3.69.
In the case of `Br.C/C=C/C=C/C1=NCCc2cc(OCCC)ccc21` [TCMDC-137442], the Selectivity ratio is 14.10.
Same read-out and setting: next, `Cl.N=C(NCCCCC1CCCCC1)c1cccc(C(=N)NCCCCC2CCCCC2)n1` [TCMDC-137452]: 1.73; `CC(CNC(=N)c1cccc(C(=N)NCC(C)Oc2cccc(C3CCCCC3)c2)n1)Oc1cccc(C2CCCCC2)c1.Cl` (stereo not shown) [TCMDC-137455]: 1.70; `N=C(NCC1CC1c1ccccc1)c1cccc(C(=N)NCC2CC2c2ccccc2)n1` (stereo not shown) [TCMDC-137456]: 3.28.
With `CCCCN(CCCC)CCCCNc1c2ccc(Cl)cc2nc2ccc(OC)cc12.Cl` [TCMDC-137460], the Selectivity ratio came to 2.41.
On to `COc1cc(CNCCCCCCNCc2cc(OC)c3ccccc3c2OC)c(OC)c2ccccc12.CS(=O)(=O)O` [TCMDC-137502], for which the Selectivity ratio is 2.20.
In the case of `Clc1ccc(/N=C(/NCCCCCCCN/C(=N\c2ccc(Cl)cc2)Nc2ccc(Cl)cc2)Nc2ccc(Cl)cc2)cc1` [TCMDC-137529], the Selectivity ratio worked out at 3.42.
Turning to `COc1ccc(CNCCCCCCNCc2ccc(OC)c3ccccc23)c2ccccc12.Cl` [TCMDC-137631], the Selectivity ratio came out at 2.52.
Same read-out and setting: next, `CN1CCN(CCNc2c3ccccc3nc3c2ccc2ccccc23)CC1.Cl` [TCMDC-137723]: 1.45; `COc1ccc2nc(-c3ccccc3)cc(NCCCNc3cc(-c4ccccc4)nc4ccc(OC)cc34)c2c1.Cl` [TCMDC-137734]: 12.64.
